# According to PMC7326902:
# Results are given in words; binding and its absence hold for the method and conditions named. In cells and extracts the contact can be indirect. Some binding calls cover weakened binding; strength is not graded here. For part of these data: Where a sequence is shown, tags or fusion partners need not be part of it.
# T1: AnxA6 overexpressed in CHO-A6 cells (UniProt P48037)
# T1 sequence: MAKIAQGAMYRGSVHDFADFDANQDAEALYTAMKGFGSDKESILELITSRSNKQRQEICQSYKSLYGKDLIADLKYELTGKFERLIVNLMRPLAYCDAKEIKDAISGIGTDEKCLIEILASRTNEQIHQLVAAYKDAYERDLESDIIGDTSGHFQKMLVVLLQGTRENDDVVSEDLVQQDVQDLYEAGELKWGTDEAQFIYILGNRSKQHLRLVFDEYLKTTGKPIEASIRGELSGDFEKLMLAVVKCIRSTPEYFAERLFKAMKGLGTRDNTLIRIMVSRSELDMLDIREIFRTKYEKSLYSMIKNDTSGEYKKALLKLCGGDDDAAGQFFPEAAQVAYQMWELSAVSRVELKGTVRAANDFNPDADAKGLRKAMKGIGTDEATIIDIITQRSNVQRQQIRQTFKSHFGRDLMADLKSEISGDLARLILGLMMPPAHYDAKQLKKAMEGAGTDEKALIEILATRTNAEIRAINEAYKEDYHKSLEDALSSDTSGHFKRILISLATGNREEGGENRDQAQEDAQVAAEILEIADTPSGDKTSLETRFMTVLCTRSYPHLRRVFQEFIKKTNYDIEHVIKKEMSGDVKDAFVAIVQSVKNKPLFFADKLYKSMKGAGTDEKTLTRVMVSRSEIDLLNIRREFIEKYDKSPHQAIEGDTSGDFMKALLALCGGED
# T2: GST–AnxA6 fusion protein (UniProt P48037)
# T2 sequence: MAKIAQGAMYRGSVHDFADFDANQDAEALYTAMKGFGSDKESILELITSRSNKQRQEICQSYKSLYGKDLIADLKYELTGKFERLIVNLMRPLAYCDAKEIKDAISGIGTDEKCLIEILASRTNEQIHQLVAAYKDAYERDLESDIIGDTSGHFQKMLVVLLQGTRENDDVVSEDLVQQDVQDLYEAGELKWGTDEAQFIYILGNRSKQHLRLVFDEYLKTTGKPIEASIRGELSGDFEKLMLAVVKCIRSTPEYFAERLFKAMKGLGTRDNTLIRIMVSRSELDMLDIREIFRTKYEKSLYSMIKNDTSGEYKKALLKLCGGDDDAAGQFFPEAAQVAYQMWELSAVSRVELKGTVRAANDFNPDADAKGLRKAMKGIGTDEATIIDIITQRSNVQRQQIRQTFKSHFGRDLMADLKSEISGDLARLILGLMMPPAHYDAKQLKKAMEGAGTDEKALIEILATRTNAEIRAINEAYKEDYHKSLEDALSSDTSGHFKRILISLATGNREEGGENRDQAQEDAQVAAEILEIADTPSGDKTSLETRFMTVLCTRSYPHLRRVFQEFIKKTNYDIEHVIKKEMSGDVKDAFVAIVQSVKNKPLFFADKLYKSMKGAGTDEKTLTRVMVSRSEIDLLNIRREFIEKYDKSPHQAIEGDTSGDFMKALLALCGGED
# T3: AnxA6, endogenous in mouse liver (mouse (endogenous in mouse liver)) (UniProt P14824)
# T3 sequence: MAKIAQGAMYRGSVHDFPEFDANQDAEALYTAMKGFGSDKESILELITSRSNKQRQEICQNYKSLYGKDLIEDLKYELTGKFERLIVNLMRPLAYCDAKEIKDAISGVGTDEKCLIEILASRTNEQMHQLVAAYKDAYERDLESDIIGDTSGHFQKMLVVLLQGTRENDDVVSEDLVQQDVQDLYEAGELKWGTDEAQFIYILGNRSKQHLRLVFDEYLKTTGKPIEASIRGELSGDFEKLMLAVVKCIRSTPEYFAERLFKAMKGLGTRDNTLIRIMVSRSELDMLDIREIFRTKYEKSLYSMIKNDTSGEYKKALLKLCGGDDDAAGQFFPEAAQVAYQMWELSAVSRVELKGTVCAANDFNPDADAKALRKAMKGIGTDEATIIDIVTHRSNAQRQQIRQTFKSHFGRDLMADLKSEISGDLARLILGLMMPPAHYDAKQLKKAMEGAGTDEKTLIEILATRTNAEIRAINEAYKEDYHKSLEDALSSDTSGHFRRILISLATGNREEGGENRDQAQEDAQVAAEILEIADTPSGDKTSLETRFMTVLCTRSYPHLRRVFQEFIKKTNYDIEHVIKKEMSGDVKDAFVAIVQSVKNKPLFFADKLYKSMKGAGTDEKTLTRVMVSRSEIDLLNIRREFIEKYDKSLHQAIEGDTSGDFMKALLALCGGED
# T4: TBC1D15, endogenous in mouse liver (mouse (endogenous in mouse liver)) (UniProt Q9CXF4)
# T4 sequence: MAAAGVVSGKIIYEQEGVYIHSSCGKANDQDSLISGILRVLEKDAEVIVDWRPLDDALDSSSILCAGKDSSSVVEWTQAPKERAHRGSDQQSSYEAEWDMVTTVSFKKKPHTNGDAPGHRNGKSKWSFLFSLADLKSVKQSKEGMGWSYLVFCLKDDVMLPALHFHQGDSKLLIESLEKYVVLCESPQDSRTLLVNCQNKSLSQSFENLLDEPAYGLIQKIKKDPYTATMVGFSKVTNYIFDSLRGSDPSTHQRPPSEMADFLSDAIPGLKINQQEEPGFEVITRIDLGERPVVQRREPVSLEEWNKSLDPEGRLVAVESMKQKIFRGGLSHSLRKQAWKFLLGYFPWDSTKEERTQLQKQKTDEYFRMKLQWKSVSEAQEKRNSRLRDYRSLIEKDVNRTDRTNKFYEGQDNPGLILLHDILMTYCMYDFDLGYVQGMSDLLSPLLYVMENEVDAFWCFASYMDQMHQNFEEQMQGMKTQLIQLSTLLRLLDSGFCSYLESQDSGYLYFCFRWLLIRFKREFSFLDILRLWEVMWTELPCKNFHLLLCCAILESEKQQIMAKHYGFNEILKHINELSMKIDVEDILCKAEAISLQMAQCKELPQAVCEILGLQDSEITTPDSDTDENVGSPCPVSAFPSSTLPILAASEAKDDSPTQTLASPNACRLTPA
# B1: TBC1D15, endogenous in mouse liver (protein, UniProt Q9CXF4 1-671)
# chain: MAAAGVVSGKIIYEQEGVYIHSSCGKANDQDSLISGILRVLEKDAEVIVDWRPLDDALDSSSILCAGKDSSSVVEWTQAPKERAHRGSDQQSSYEAEWDMVTTVSFKKKPHTNGDAPGHRNGKSKWSFLFSLADLKSVKQSKEGMGWSYLVFCLKDDVMLPALHFHQGDSKLLIESLEKYVVLCESPQDSRTLLVNCQNKSLSQSFENLLDEPAYGLIQKIKKDPYTATMVGFSKVTNYIFDSLRGSDPSTHQRPPSEMADFLSDAIPGLKINQQEEPGFEVITRIDLGERPVVQRREPVSLEEWNKSLDPEGRLVAVESMKQKIFRGGLSHSLRKQAWKFLLGYFPWDSTKEERTQLQKQKTDEYFRMKLQWKSVSEAQEKRNSRLRDYRSLIEKDVNRTDRTNKFYEGQDNPGLILLHDILMTYCMYDFDLGYVQGMSDLLSPLLYVMENEVDAFWCFASYMDQMHQNFEEQMQGMKTQLIQLSTLLRLLDSGFCSYLESQDSGYLYFCFRWLLIRFKREFSFLDILRLWEVMWTELPCKNFHLLLCCAILESEKQQIMAKHYGFNEILKHINELSMKIDVEDILCKAEAISLQMAQCKELPQAVCEILGLQDSEITTPDSDTDENVGSPCPVSAFPSSTLPILAASEAKDDSPTQTLASPNACRLTPA
# B2: AnxA6, endogenous in mouse liver (protein, UniProt P14824 1-673)
# chain: MAKIAQGAMYRGSVHDFPEFDANQDAEALYTAMKGFGSDKESILELITSRSNKQRQEICQNYKSLYGKDLIEDLKYELTGKFERLIVNLMRPLAYCDAKEIKDAISGVGTDEKCLIEILASRTNEQMHQLVAAYKDAYERDLESDIIGDTSGHFQKMLVVLLQGTRENDDVVSEDLVQQDVQDLYEAGELKWGTDEAQFIYILGNRSKQHLRLVFDEYLKTTGKPIEASIRGELSGDFEKLMLAVVKCIRSTPEYFAERLFKAMKGLGTRDNTLIRIMVSRSELDMLDIREIFRTKYEKSLYSMIKNDTSGEYKKALLKLCGGDDDAAGQFFPEAAQVAYQMWELSAVSRVELKGTVCAANDFNPDADAKALRKAMKGIGTDEATIIDIVTHRSNAQRQQIRQTFKSHFGRDLMADLKSEISGDLARLILGLMMPPAHYDAKQLKKAMEGAGTDEKTLIEILATRTNAEIRAINEAYKEDYHKSLEDALSSDTSGHFRRILISLATGNREEGGENRDQAQEDAQVAAEILEIADTPSGDKTSLETRFMTVLCTRSYPHLRRVFQEFIKKTNYDIEHVIKKEMSGDVKDAFVAIVQSVKNKPLFFADKLYKSMKGAGTDEKTLTRVMVSRSEIDLLNIRREFIEKYDKSLHQAIEGDTSGDFMKALLALCGGED
# B3: AnxA6 overexpressed in CHO-A6 cells (protein, UniProt P48037 1-673)
# chain: MAKIAQGAMYRGSVHDFADFDANQDAEALYTAMKGFGSDKESILELITSRSNKQRQEICQSYKSLYGKDLIADLKYELTGKFERLIVNLMRPLAYCDAKEIKDAISGIGTDEKCLIEILASRTNEQIHQLVAAYKDAYERDLESDIIGDTSGHFQKMLVVLLQGTRENDDVVSEDLVQQDVQDLYEAGELKWGTDEAQFIYILGNRSKQHLRLVFDEYLKTTGKPIEASIRGELSGDFEKLMLAVVKCIRSTPEYFAERLFKAMKGLGTRDNTLIRIMVSRSELDMLDIREIFRTKYEKSLYSMIKNDTSGEYKKALLKLCGGDDDAAGQFFPEAAQVAYQMWELSAVSRVELKGTVRAANDFNPDADAKGLRKAMKGIGTDEATIIDIITQRSNVQRQQIRQTFKSHFGRDLMADLKSEISGDLARLILGLMMPPAHYDAKQLKKAMEGAGTDEKALIEILATRTNAEIRAINEAYKEDYHKSLEDALSSDTSGHFKRILISLATGNREEGGENRDQAQEDAQVAAEILEIADTPSGDKTSLETRFMTVLCTRSYPHLRRVFQEFIKKTNYDIEHVIKKEMSGDVKDAFVAIVQSVKNKPLFFADKLYKSMKGAGTDEKTLTRVMVSRSEIDLLNIRREFIEKYDKSPHQAIEGDTSGDFMKALLALCGGED
# B4: YFP–TBC1D15(1–200) deletion mutant (domain or fragment, UniProt Q8TC07-2 1-200)
# chain: MAAAGVVSGKIIYEQEGVYIHSSCGKTNDQDGLISGILRVLEKDAEVIVDWRPLDDALDSSSILYARKDSSSVVEWTQAPKERGHRGSEHLNSYEAEWDMVNTVSFKRKPHTNGDAPSHRNGKSKWSFLFSLTDLKSIKQNKEGMGWSYLVFCLKDDVVLPALHFHQGDSKLLIESLEKYVVLCESPQDKRTLLVNCQNK
# How the values were obtained:
# [1] = target: T1, AnxA6 overexpressed in CHO-A6 cells; experiment: co-IP; lysates of CHO-WT, CHO-A6, CHO M12 and CHO 2-2 cells (50 mM Tris, 150 mM NaCl, 1% Triton X-100, 0.1 mM CaCl2, pH 7.4); anti-AnxA6, anti-TBC1D15 or control antibody, Protein A-agarose, 4 °C; western blotting
# GST–AnxA6 fusion protein = target: T2, GST–AnxA6 fusion protein; experiment: pull-down; glutathione Sepharose 4B beads coated with purified GST–AnxA6 (40–70 µg), incubated with post-nuclear supernatants of cell lysates (400–700 µg; CHO lines or transfected COS-1) for 2 h at 4 °C in 50 mM Tris, 150 mM NaCl, 1% Triton X-100, 0.1 mM CaCl2, pH 7.3; western blotting; only the target purified
# [2] = target: T3, AnxA6, endogenous in mouse liver (mouse (endogenous in mouse liver)); experiment: co-IP; mouse liver homogenates (10 mM Tris, 150 mM NaCl, 5 mM EDTA, pH 7.5), pre-cleaned with Protein A-agarose; anti-AnxA6, anti-TBC1D15 or control antibody; western blotting
# [3] = target: T4, TBC1D15, endogenous in mouse liver (mouse (endogenous in mouse liver)); experiment: as above
# [4] = target: TBC1D15, endogenous in CHO cells (Chinese hamster (endogenous in CHO)); experiment: co-IP; lysates of CHO-WT, CHO-A6, CHO M12 and CHO 2-2 cells (50 mM Tris, 150 mM NaCl, 1% Triton X-100, 0.1 mM CaCl2, pH 7.4); anti-AnxA6, anti-TBC1D15 or control antibody, Protein A-agarose, 4 °C; western blotting
molecule,measurement,setting,value
"TBC1D15, endogenous in CHO cells (from UniProt A0A8C2MJC3 1-673)",binding,[1],binds
same,binding,GST–AnxA6 fusion protein,binds
B1,binding,[2],binds
B2,binding,[3],binds
B3,binding,[4],binds
B4,binding,GST–AnxA6 fusion protein,binds
